The target in assay [1] is Telomeric repeat binding factor 2 (TRF2) (human (endogenous in BJ-HELT fibroblasts and skeletal muscle biopsies)) (UniProt Q15554). In words: condition: only cells under starvation (DMEM without FBS, 1 week); proximity ligation; PLA TRF2-FOXO3a in fixed BJ-HELT cells under starvation (DMEM without FBS, 1 week).
Assay [2] shares this target. Description: co-IP; human skeletal muscle biopsies of different ages lysed in 50 mM Tris-HCl, 150 mM NaCl, 0,1% NP40, sonicated; immunoprecipitation with TRF2 antibody (NB100-56506) overnight at 4 °C, Protein G Dynabeads; Western blot for FOXO3a.
The target is the same in assay [3]. Description: proximity ligation; PLA TRF2-FOXO3a in fixed BJ-HELT cells treated with bleomycin (50 μg/mL, 24 hr); untreated and UV-exposed cells in the same panel; Duolink In Situ Red Mouse/Rabbit kit.
Assay [4] has as its target TRF1 (human (endogenous in myotubes and BJ-HELT fibroblasts)) (UniProt P54274). In words: proximity ligation; PLA TRF1-FOXO3a in fixed BJ-HELT cells transfected with siCtrl or siTRF2; nuclear spots counted.
Assay [5] has the same target. In words: proximity ligation; PLA between TRF1 and FOXO3a in fixed human myotubes transduced with shScramble or shTERF2; nuclear spots counted.
In assay [6] the target is Telomeric repeat binding factor 2 (TRF2) (human (endogenous in BJ-HELT fibroblasts and skeletal muscle biopsies)) (UniProt Q15554). In words: proximity ligation; PLA TRF2-FOXO3a in fixed BJ-HELT cells with siFOXO3a and exogenous full-length or truncated FOXO3a, treated with bleomycin.

Chains of the proteins cited; added tags and fusions are not shown.
UniProt Q15554: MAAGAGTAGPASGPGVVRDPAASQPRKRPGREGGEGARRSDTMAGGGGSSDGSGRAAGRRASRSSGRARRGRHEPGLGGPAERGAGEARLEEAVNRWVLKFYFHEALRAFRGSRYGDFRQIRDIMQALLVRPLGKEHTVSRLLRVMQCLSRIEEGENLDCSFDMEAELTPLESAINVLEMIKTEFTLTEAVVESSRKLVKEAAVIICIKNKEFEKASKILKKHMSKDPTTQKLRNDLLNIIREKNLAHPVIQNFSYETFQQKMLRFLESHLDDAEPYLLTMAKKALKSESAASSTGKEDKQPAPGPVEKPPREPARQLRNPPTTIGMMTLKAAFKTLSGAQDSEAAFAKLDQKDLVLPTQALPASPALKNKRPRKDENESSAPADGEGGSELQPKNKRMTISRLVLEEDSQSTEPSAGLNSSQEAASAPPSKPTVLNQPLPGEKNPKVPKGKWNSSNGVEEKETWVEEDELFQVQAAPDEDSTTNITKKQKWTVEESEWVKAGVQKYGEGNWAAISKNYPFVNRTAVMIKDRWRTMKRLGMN
UniProt P54274: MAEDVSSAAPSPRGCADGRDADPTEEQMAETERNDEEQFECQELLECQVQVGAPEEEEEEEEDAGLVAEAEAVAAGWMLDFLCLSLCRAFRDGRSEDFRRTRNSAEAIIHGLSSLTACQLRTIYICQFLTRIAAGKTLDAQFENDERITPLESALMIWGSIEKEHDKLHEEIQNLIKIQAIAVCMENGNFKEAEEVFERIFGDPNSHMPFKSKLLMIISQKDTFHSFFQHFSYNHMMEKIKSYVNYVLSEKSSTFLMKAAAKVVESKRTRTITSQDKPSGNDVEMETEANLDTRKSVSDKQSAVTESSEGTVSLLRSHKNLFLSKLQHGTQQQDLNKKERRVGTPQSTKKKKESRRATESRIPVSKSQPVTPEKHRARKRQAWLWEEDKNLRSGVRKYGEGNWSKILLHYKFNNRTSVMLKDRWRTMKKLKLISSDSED
UniProt O43524: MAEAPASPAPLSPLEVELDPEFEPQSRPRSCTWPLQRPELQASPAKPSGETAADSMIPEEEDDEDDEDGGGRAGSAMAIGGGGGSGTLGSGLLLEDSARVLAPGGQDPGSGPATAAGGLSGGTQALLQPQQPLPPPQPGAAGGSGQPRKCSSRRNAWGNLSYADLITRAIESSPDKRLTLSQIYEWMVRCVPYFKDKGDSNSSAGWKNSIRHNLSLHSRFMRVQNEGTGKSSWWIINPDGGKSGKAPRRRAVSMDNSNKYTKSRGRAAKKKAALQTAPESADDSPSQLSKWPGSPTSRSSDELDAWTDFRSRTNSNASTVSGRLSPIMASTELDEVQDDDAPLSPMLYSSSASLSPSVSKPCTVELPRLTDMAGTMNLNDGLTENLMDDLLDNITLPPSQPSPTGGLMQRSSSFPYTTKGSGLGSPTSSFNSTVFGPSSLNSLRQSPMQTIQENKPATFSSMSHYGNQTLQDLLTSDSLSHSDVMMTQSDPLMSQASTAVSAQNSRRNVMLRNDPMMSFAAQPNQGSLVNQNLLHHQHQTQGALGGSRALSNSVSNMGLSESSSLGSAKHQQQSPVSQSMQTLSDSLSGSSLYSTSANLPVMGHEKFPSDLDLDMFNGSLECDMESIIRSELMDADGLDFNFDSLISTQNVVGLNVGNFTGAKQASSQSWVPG

Results are given in words; binding and its absence hold for the method and conditions named. Binding seen in cells or lysates may run through a third protein. Some binding calls cover weakened binding; strength is not graded here.

With FOXO3a (from UniProt O43524 1-673), the binding entry is reported as “no binding” in assay [1]; “binds” in assay [2]; “binds” in assay [3]; “binds” in assay [4]; “binds” in assay [5].
For the substance “full-length FOXO3a (pWPIR-FOXO3aWT-GFP) (from UniProt O43524 1-673)”, in assay [6], the binding entry is recorded as “binds”.

Source of the values: PMC10213016.
